The values below come from article PMC9697873, “Construction and Evaluation of a Novel Organic Anion Transporter 1/3 CRISPR/Cas9 Double-Knockout Rat Model” (Pharmaceutics, 2022).

The conditions of the series: KO vs WT rats, 20 mg/kg oral, at 2, 4, 6, 8, 10, 12 h.

For `NS(=O)(=O)c1cc(C(=O)O)c(NCc2ccco2)cc1Cl` [Furosemide, furosemide], the “urine furosemide excretion, KO compared with WT rats” value is “markedly decreased”.
